No constants are given. Whether binding was seen depends on the method and setting. In cells and extracts the contact can be indirect. Some entries that bind do so weakly or less than the wild type. For some assays here: Sequences can lack the tags named with a protein.
B1: Trim21, mouse, endogenous (protein, UniProt Q62191 1-470)
chain: MSPSTTSKMSLEKMWEEVTCSICLDPMVEPMSIECGHCFCKECIFEVGKNGGSSCPECRQQFLLRNLRPNRHIANMVENLKQIAQNTKKSTQETHCMKHGEKLHLFCEEDGQALCWVCAQSGKHRDHTRVPIEEAAKVYQEKIHVVLEKLRKGKELAEKMEMDLTMQRTDWKRNIDTQKSRIHAEFALQNSLLAQEEQRQLQRLEKDQREYLRLLGKKEAELAEKNQALQELISELERRIRGSELELLQEVRIILERSGSWNLDTLDIDAPDLTSTCPVPGRKKMLRTCWVHITLDRNTANSWLIISKDRRQVRMGDTHQNVSDNKERFSNYPMVLGAQRFSSGKMYWEVDVTQKEAWDLGVCRDSVQRKGQFSLSPENGFWTIWLWQDSYEAGTSPQTTLHIQVPPCQIGIFVDYEAGVVSFYNITDHGSLIYTFSECVFAGPLRPFFNVGFNYSGGNAAPLKLCPLKM
B2: mCherry-tagged mouse Trim21 (pmCherry-C1-mTrim21) (protein, UniProt Q62191 1-470)
chain: B1 chain

How the values were obtained:
[1] = biological target: T1, Sting, mouse, endogenous (mouse (endogenous in splenocytes and NIH3T3)) (UniProt Q3TBT3); test: proximity ligation; endogenous proteins in human PBMCs and mouse splenocytes; antibodies against TRIM21 and STING; NaveniFlex Cell MR Atto647N; confocal microscopy
T1 sequence: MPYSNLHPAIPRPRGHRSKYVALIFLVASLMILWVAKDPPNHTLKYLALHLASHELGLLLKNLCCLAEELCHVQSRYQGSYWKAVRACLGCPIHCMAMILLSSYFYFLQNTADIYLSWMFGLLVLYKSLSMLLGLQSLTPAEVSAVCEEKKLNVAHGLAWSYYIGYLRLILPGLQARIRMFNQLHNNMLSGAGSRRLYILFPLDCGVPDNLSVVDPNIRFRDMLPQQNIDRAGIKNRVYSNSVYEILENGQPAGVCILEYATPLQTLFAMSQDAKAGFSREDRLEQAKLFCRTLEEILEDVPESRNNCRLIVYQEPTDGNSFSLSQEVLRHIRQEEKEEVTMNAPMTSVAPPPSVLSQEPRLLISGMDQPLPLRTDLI

[2] = biological target: T1, Sting, mouse, endogenous (mouse (endogenous in splenocytes and NIH3T3)); test: proximity ligation; NIH3T3 cells overexpressing mCherry-tagged Trim21 constructs; antibodies against mCherry and STING; NaveniFlex Cell MR Atto647N; confocal microscopy

Binder	binding [1]	binding [2]
B1	binds	
B2		binds

— PMC12322227
